{"source": "PubChem BioAssay AID1224828, NIAID – 2016", "purpose": "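Find genes required for NF-kappaB p65 moving into the nucleus after LPS in mouse macrophages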 (primary screen)", "cell system": "mouse RAW264.7 G9 macrophage reporter cells (GFP-p65, Tnf promoter-mCherry)", "reagent": "siRNA pool against mouse genes, 100 nM", "timing": "2 days siRNA transfection, then 40 min LPS before fixation", "conditions": "LPS (Salmonella minnesota R595) at 10 ng/ml", "measured": "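Microscopy ratio of nuclear to perinuclear-ring GFP-p65 signal, scaled to the plate median; gene score is the average of two replicate robust z-scores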", "direction": "p65 translocation robust z-score: higher = more nuclear NF-kappaB p65 after LPS than the plate median; nuclear/cytoplasmic p65 ratio: higher = more nuclear NF-kappaB p65", "hit rule": "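Called active when z exceeds 3.3 or falls under -1.56 (median of Tlr4 controls), giving activity score of at least 50; no calls for control wells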", "meaning of the calls": "active = hit (p65 shift raised or lowered); inactive = no clear change", "note": "The deposit covers about 17,000 reagents; below is a random part of them. 762 of them (4.5%) were called active. 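Active calls include both raised and lowered p65 entry, mostly lowered; wells with fewer than 50 cells lack a z-score.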 The raw values are shown without normalisation."}
{"gene":"Tmem19 (transmembrane protein 19)","p65 translocation robust z-score":1.85,"nuclear/cytoplasmic p65 ratio, rep 1":1.6,"nuclear/cytoplasmic p65 ratio, rep 2":1.19,"low cell count flag":"enough cells to score","call":"inactive"}
{"gene":"Mob1a (MOB kinase activator 1A)","p65 translocation robust z-score":-0.18,"nuclear/cytoplasmic p65 ratio, rep 1":1.77,"nuclear/cytoplasmic p65 ratio, rep 2":1.55,"low cell count flag":"enough cells to score","call":"inactive"}
{"gene":"Tert (telomerase reverse transcriptase)","p65 translocation robust z-score":0.9,"nuclear/cytoplasmic p65 ratio, rep 1":1.54,"nuclear/cytoplasmic p65 ratio, rep 2":1.75,"low cell count flag":"enough cells to score","call":"inactive"}
{"gene":"Snai1 (snail family zinc finger 1)","p65 translocation robust z-score":0.72,"nuclear/cytoplasmic p65 ratio, rep 1":1.58,"nuclear/cytoplasmic p65 ratio, rep 2":1.73,"low cell count flag":"enough cells to score","call":"inactive"}
{"gene":"Pqbp1 (polyglutamine binding protein 1)","nuclear/cytoplasmic p65 ratio, rep 1":1.47,"nuclear/cytoplasmic p65 ratio, rep 2":1.32,"low cell count flag":"fewer than 50 cells per well; well left out of scoring","call":"inactive"}
{"gene":"Fbxo42 (F-box protein 42)","p65 translocation robust z-score":1.42,"nuclear/cytoplasmic p65 ratio, rep 1":1.57,"nuclear/cytoplasmic p65 ratio, rep 2":1.8,"low cell count flag":"enough cells to score","call":"inactive"}
{"gene":"Rpn1 (ribophorin I)","nuclear/cytoplasmic p65 ratio, rep 1":1.68,"nuclear/cytoplasmic p65 ratio, rep 2":1.25,"low cell count flag":"fewer than 50 cells per well; well left out of scoring","call":"inactive"}
{"gene":"Smc3 (structural maintenance of chromosomes 3)","p65 translocation robust z-score":-1.29,"nuclear/cytoplasmic p65 ratio, rep 1":1.4,"nuclear/cytoplasmic p65 ratio, rep 2":1.56,"low cell count flag":"enough cells to score","call":"inactive"}
{"gene":"Rpl21 (ribosomal protein L21)","p65 translocation robust z-score":-0.56,"nuclear/cytoplasmic p65 ratio, rep 1":1.27,"nuclear/cytoplasmic p65 ratio, rep 2":1.22,"low cell count flag":"enough cells to score","call":"inactive"}
{"gene":"Nelfb (negative elongation factor complex member B)","p65 translocation robust z-score":-0.15,"nuclear/cytoplasmic p65 ratio, rep 1":1.36,"nuclear/cytoplasmic p65 ratio, rep 2":1.5,"low cell count flag":"enough cells to score","call":"inactive"}
{"gene":"Bpifb2 (BPI fold containing family B, member 2)","p65 translocation robust z-score":-1.76,"nuclear/cytoplasmic p65 ratio, rep 1":1.15,"nuclear/cytoplasmic p65 ratio, rep 2":1.33,"low cell count flag":"enough cells to score","call":"active"}
{"gene":"Oas1e (2'-5' oligoadenylate synthetase 1E)","p65 translocation robust z-score":0.57,"nuclear/cytoplasmic p65 ratio, rep 1":1.91,"nuclear/cytoplasmic p65 ratio, rep 2":1.52,"low cell count flag":"enough cells to score","call":"inactive"}
{"gene":"Plaur (plasminogen activator, urokinase receptor)","p65 translocation robust z-score":-0.11,"nuclear/cytoplasmic p65 ratio, rep 1":1.45,"nuclear/cytoplasmic p65 ratio, rep 2":1.42,"low cell count flag":"enough cells to score","call":"inactive"}
{"gene":"F13a1 (coagulation factor XIII, A1 subunit)","p65 translocation robust z-score":1.15,"nuclear/cytoplasmic p65 ratio, rep 1":1.65,"nuclear/cytoplasmic p65 ratio, rep 2":1.49,"low cell count flag":"enough cells to score","call":"inactive"}

Records listed above marked active:
{"gene":"Bpifb2 (BPI fold containing family B, member 2)","p65 translocation robust z-score":-1.76,"nuclear/cytoplasmic p65 ratio, rep 1":1.15,"nuclear/cytoplasmic p65 ratio, rep 2":1.33,"low cell count flag":"enough cells to score","call":"active"}
